Patent publication US20160138012
Construct, isoform or probe ends are uncertain for at least one entry. Results from cells or extracts need not show a direct contact. Negatives hold for the conditions tested.

The chains behind the UniProt entries cited, without tags or fusion partners. Where a name states a change or a piece, a line headed by the entry shows the natural chain unless it says otherwise.
UniProt P39016: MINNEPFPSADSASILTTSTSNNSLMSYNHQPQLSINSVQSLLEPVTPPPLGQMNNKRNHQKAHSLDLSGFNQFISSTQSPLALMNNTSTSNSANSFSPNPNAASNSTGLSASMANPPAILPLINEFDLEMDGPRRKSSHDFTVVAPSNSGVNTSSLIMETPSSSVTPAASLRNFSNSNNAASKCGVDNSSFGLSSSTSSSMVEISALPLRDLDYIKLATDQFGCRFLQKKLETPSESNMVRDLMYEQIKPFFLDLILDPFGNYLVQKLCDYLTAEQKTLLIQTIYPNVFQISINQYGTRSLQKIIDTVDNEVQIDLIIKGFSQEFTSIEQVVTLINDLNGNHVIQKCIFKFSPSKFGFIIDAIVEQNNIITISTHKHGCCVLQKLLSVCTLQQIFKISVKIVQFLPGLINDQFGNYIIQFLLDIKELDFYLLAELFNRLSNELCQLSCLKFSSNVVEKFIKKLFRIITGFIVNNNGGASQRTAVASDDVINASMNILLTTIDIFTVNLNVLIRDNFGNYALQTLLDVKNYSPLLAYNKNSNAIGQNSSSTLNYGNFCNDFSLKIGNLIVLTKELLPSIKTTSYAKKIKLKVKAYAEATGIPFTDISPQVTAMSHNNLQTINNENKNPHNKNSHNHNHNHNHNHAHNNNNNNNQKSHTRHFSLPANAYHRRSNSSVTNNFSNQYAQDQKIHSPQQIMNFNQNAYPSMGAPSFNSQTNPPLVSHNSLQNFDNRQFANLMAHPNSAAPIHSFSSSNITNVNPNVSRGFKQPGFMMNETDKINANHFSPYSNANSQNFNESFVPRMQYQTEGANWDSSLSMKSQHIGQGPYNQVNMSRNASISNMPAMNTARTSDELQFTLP

Target: Puf5p (PUF5-PUP chimera) (Saccharomyces cerevisiae) (UniProt P39016)
Experiment: binding assay
Details: protein in cells
[1] = in vivo RNA Tagging of endogenous PHD1 mRNA carrying both intact elements

Row | Sequence | binding result [1] | further results
1 | ACAAACAUUA [PHD1 mutant element ACAAACAUUA] |  | binding result (in vivo RNA Tagging, both elements mutated together in PHD1 mRNA, no U-tag): no binding
2 | ACAAGUUA [PHD1 mutant element ACAAGUUA] |  | binding result (in vivo RNA Tagging, both elements mutated together in PHD1 mRNA, no U-tag, variant of PHD1 3' UTR PUF-binding element UGUAGUUA): no binding
3 | UGUAACAUUA [PHD1 3' UTR PUF-binding element UGUAACAUUA] | binds | 
4 | UGUAGUUA [PHD1 3' UTR PUF-binding element UGUAGUUA] | binds | 
